One molecule from publication PMC12905343 can be followed below.

The target in one assay is T1, HA-INSIG1(H150R) (human) (UniProt O15503).
T1 sequence: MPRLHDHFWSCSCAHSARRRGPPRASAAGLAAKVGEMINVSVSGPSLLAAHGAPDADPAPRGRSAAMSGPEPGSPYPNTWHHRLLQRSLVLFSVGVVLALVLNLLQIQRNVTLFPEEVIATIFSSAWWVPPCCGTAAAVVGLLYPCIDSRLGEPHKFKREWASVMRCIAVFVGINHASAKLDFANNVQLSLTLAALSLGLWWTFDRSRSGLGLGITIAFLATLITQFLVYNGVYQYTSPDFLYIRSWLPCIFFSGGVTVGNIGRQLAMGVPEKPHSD
Kind of assay: co-IP; HepG2 cells co-transfected with HA-INSIG1 (WT or H150R) and Flag-SCAP; lysate incubated with HA antibody on Protein A/G magnetic beads, 4 °C, 2 h; washed with PBST pH 7.4; eluted with 0.15 M glycine pH 2.8; western blot with anti-HA and anti-FLAG.

A further assay addresses T2, HA-INSIG1(WT) (human) (UniProt O15503).
T2 sequence: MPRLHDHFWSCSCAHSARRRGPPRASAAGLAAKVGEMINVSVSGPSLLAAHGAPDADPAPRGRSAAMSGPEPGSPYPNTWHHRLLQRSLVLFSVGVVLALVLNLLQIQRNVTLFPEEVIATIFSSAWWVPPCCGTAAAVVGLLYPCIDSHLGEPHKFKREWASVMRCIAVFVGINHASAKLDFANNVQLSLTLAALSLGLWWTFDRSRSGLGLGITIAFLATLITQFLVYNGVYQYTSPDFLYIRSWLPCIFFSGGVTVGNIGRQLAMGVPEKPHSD
The assay is described as above.

These are yes or no findings as the source states them, for the method shown. In cells and extracts the contact can be indirect. Some entries that bind do so weakly or less than the wild type. Sequences can lack the tags named with a protein.

B1: FLAG-SCAP (protein, UniProt Q12770-1 1-1279)
chain: MTLTERLREKISRAFYNHGLLCASYPIPIILFTGFCILACCYPLLKLPLPGTGPVEFTTPVKDYSPPPVDSDRKQGEPTEQPEWYVGAPVAYVQQIFVKSSVFPWHKNLLAVDVFRSPLSRAFQLVEEIRNHVLRDSSGIRSLEELCLQVTDLLPGLRKLRNLLPEHGCLLLSPGNFWQNDWERFHADPDIIGTIHQHEPKTLQTSATLKDLLFGVPGKYSGVSLYTRKRMVSYTITLVFQHYHAKFLGSLRARLMLLHPSPNCSLRAESLVHVHFKEEIGVAELIPLVTTYIILFAYIYFSTRKIDMVKSKWGLALAAVVTVLSSLLMSVGLCTLFGLTPTLNGGEIFPYLVVVIGLENVLVLTKSVVSTPVDLEVKLRIAQGLSSESWSIMKNMATELGIILIGYFTLVPAIQEFCLFAVVGLVSDFFLQMLFFTTVLSIDIRRMELADLNKRLPPEACLPSAKPVGQPTRYERQLAVRPSTPHTITLQPSSFRNLRLPKRLRVVYFLARTRLAQRLIMAGTVVWIGILVYTDPAGLRNYLAAQVTEQSPLGEGALAPMPVPSGMLPPSHPDPAFSIFPPDAPKLPENQTSPGESPERGGPAEVVHDSPVPEVTWGPEDEELWRKLSFRHWPTLFSYYNITLAKRYISLLPVIPVTLRLNPREALEGRHPQDGRSAWPPPGPIPAGHWEAGPKGPGGVQAHGDVTLYKVAALGLATGIVLVLLLLCLYRVLCPRNYGQLGGGPGRRRRGELPCDDYGYAPPETEIVPLVLRGHLMDIECLASDGMLLVSCCLAGHVCVWDAQTGDCLTRIPRPGRQRRDSGVGSGLEAQESWERLSDGGKAGPEEPGDSPPLRHRPRGPPPPSLFGDQPDLTCLIDTNFSAQPRSSQPTQPEPRHRAVCGRSRDSPGYDFSCLVQRVYQEEGLAAVCTPALRPPSPGPVLSQAPEDEGGSPEKGSPSLAWAPSAEGSIWSLELQGNLIVVGRSSGRLEVWDAIEGVLCCSSEEVSSGITALVFLDKRIVAARLNGSLDFFSLETHTALSPLQFRGTPGRGSSPASPVYSSSDTVACHLTHTVPCAHQKPITALKAAAGRLVTGSQDHTLRVFRLEDSCCLFTLQGHSGAITTVYIDQTMVLASGGQDGAICLWDVLTGSRVSHVFAHRGDVTSLTCTTSCVISSGLDDLISIWDRSTGIKFYSIQQDLGCGASLGVISDNLLVTGGQGCVSFWDLNYGDLLQTVYLGKNSEAQPARQILVLDNAAIVCNFGSELSLVYVPSVLEKLD
Take B1: the results for the binding result in the assay with HA-INSIG1(H150R) (human) and in the assay with HA-INSIG1(WT) (human) were “no binding” and “binds”, respectively.
